At least one compound was matched to its structure with a doubt left.
System: HMCLs
Assay: HMCLs response to drug treatment (IC50 at day 4, CellTiter-Glo assay)
Format: cell-based, human
Settings: classification from IC50 at day 4
Protocol: HMCLs were cultured in RPMI-1640 medium (Gibco, Thermo Fisher Scientific, Waltham, USA) supplemented with 10% fetal bovine serum (Eurobio, Les Ulis, France) and IL-6 (Peprotech, Rocky Hill, USA) for XG cell lines. The inventorsevaluated the sensitivity of HMCLs to lenalidomide and romidepsin (Selleckchem, Houston, USA). The IC50 was determined at day 4 using the CellTiter-Glo assay (Promega, Madison, USA), as previously described. The data represent the mean ± standard deviation of three independent experiments that were carried out on sextuplet culture wells (Figure 6A and 7A).

SMILES: C/C=C1\NC(=O)[C@H]2CSSCC/C=C/[C@H](CC(=O)N[C@H](C(C)C)C(=O)N2)OC(=O)[C@H](C(C)C)NC1=O [romidepsin]
- sensitivity of HMCLs to romidepsin (AMO1, XG7, XG13, XG19 and XG20 cell lines): resistant
- sensitivity of HMCLs to romidepsin (OPM2, RPMI8226, SKMM2, XG1, XG5, XG6 and XG12 cell lines): sensitive
